Sequences and labels used below:
T1: HA-eIF2A (N-terminally HA-tagged eukaryotic initiation factor 2A expressed from YCplac111-YP) (S. cerevisiae) (UniProt P53235)
T1 sequence: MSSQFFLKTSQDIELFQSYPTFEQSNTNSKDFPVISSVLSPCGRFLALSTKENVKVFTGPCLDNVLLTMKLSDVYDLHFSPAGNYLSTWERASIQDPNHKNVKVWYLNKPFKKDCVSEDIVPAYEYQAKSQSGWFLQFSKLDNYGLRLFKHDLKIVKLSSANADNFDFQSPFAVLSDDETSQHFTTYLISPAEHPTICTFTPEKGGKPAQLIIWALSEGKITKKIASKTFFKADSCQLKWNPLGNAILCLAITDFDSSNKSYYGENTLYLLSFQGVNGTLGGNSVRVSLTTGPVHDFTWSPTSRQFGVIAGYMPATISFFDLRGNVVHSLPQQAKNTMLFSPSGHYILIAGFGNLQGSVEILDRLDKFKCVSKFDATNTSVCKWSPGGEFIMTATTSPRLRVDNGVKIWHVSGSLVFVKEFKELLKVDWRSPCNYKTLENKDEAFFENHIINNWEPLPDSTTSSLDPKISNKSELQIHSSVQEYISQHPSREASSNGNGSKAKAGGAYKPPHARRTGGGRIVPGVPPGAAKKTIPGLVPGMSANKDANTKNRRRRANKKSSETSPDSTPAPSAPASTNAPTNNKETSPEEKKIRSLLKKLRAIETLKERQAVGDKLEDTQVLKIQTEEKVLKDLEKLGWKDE

Sequences of proteins named here, by UniProt entry; tags and fusion partners are left off.
UniProt P04147: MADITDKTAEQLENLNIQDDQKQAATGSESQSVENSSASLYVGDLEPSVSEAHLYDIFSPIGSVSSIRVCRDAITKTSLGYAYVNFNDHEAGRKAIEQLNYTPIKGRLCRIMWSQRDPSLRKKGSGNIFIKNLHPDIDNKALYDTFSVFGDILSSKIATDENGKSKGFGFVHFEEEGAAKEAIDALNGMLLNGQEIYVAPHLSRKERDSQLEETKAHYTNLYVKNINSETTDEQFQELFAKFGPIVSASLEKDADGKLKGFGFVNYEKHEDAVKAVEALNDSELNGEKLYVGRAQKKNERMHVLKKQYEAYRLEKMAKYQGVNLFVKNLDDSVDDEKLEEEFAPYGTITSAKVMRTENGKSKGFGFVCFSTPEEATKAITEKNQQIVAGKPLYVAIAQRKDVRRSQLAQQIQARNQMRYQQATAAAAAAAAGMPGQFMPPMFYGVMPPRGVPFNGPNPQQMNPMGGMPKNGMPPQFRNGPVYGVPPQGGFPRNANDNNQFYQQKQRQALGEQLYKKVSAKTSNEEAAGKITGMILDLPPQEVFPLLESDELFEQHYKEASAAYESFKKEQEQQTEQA
UniProt P14126: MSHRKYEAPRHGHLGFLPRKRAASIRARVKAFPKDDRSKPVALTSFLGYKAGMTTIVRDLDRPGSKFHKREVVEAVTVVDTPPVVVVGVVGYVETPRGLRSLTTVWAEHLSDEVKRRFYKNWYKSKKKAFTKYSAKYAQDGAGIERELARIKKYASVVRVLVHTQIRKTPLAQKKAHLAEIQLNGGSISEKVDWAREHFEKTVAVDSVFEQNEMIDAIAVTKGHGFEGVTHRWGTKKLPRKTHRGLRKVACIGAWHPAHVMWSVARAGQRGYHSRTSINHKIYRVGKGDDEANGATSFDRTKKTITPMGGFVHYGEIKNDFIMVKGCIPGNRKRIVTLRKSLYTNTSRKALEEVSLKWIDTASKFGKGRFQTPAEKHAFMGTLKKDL
UniProt P02994: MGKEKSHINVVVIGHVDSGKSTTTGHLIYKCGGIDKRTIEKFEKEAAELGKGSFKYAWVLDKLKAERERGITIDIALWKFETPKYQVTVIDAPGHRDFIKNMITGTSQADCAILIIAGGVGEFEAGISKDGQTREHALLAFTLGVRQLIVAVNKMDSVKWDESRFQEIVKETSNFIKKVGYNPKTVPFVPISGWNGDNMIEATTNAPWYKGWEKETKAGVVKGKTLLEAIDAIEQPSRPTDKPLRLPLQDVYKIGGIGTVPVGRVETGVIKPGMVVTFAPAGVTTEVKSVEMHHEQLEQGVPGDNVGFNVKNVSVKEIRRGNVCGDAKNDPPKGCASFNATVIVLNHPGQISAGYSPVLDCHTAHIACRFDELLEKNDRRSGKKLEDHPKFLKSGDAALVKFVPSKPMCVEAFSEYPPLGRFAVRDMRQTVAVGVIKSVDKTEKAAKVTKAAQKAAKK
UniProt P54780: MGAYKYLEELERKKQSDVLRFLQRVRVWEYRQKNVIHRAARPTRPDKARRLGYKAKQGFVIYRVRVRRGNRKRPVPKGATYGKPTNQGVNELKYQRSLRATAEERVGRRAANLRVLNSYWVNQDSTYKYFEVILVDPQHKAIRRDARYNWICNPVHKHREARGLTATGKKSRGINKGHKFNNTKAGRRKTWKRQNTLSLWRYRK
UniProt P0CX44: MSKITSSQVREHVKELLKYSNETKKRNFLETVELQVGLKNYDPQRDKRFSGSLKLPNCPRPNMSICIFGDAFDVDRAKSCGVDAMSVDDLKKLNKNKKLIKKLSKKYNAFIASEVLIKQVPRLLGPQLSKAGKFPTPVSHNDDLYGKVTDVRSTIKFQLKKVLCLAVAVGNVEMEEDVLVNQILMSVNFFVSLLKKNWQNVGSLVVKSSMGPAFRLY
UniProt P0CX46: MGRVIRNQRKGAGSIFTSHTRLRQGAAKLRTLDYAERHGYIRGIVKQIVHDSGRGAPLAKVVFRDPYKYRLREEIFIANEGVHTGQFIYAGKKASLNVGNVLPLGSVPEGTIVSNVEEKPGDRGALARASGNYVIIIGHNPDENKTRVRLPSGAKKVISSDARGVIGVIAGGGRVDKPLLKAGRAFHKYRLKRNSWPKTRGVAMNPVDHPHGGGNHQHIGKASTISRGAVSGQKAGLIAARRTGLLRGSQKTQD
UniProt P49626: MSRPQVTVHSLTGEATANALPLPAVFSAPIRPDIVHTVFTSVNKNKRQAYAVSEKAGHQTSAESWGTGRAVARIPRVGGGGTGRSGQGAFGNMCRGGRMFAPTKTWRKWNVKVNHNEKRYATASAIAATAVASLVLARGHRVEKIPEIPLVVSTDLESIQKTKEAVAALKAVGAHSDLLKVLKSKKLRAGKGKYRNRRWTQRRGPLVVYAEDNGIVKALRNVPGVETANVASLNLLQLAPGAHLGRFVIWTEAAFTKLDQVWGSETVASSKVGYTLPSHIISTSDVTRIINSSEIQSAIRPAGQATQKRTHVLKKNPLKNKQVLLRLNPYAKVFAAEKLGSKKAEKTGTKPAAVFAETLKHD
UniProt P32324: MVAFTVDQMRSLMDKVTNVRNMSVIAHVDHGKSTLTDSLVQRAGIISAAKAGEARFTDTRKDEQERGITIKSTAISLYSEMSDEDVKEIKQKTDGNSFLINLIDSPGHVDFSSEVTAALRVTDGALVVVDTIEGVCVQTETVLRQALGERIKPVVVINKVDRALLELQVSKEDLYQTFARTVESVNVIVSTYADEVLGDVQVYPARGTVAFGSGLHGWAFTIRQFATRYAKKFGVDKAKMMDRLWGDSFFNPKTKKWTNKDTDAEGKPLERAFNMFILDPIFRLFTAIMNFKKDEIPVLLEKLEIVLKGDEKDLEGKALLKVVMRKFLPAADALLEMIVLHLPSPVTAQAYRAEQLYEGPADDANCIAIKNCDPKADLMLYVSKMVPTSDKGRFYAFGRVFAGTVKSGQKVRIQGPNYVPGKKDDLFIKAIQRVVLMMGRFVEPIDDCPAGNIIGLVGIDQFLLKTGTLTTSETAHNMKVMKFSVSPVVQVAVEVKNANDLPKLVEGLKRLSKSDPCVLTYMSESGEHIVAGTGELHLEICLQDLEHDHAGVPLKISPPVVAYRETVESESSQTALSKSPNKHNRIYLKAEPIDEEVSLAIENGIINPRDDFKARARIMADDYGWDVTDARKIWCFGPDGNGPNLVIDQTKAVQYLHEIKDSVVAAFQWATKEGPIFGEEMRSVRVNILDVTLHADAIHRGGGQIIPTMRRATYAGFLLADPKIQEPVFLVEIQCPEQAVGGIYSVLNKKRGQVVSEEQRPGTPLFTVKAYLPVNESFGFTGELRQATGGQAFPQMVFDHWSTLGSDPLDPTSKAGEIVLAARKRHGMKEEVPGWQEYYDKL

B1: Eukaryotic translation initiation factor 4A (Tif1p), endogenous (protein, UniProt P10081 1-395)
chain: MSEGITDIEESQIQTNYDKVVYKFDDMELDENLLRGVFGYGFEEPSAIQQRAIMPIIEGHDVLAQAQSGTGKTGTFSIAALQRIDTSVKAPQALMLAPTRELALQIQKVVMALAFHMDIKVHACIGGTSFVEDAEGLRDAQIVVGTPGRVFDNIQRRRFRTDKIKMFILDEADEMLSSGFKEQIYQIFTLLPPTTQVVLLSATMPNDVLEVTTKFMRNPVRILVKKDELTLEGIKQFYVNVEEEEYKYECLTDLYDSISVTQAVIFCNTRRKVEELTTKLRNDKFTVSAIYSDLPQQERDTIMKEFRSGSSRILISTDLLARGIDVQQVSLVINYDLPANKENYIHRIGRGGRFGRKGVAINFVTNEDVGAMRELEKFYSTQIEELPSDIATLLN
B2: Small ribosomal protein 8A, endogenous (protein, UniProt P0CX39 1-200)
chain: MGISRDSRHKRSATGAKRAQFRKKRKFELGRQPANTKIGAKRIHSVRTRGGNKKYRALRIETGNFSWASEGISKKTRIAGVVYHPSNNELVRTNTLTKAAIVQIDATPFRQWFEAHYGQTLGKKKNVKEEETVAKSKNAERKWAARAASAKIESSVESQFSAGRLYACISSRPGQSGRCDGYILEGEELAFYLRRLTAKK
B3: Large ribosomal protein 7A, endogenous (protein, UniProt P05737 1-244)
chain: MAAEKILTPESQLKKSKAQQKTAEQVAAERAARKAANKEKRAIILERNAAYQKEYETAERNIIQAKRDAKAAGSYYVEAQHKLVFVVRIKGINKIPPKPRKVLQLLRLTRINSGTFVKVTKATLELLKLIEPYVAYGYPSYSTIRQLVYKRGFGKINKQRVPLSDNAIIEANLGKYGILSIDDLIHEIITVGPHFKQANNFLWPFKLSNPSGGWGVPRKFKHFIQGGSFGNREEFINKLVKSMN
B4: Small ribosomal protein 4A, endogenous (protein, UniProt P0CX35 1-261)
chain: MARGPKKHLKRLAAPHHWLLDKLSGCYAPRPSAGPHKLRESLPLIVFLRNRLKYALNGREVKAILMQRHVKVDGKVRTDTTYPAGFMDVITLDATNENFRLVYDVKGRFAVHRITDEEASYKLGKVKKVQLGKKGVPYVVTHDGRTIRYPDPNIKVNDTVKIDLASGKITDFIKFDAGKLVYVTGGRNLGRIGTIVHKERHDGGFDLVHIKDSLDNTFVTRLNNVFVIGEQGKPYISLPKGKGIKLSIAEERDRRRAQQGL

These are yes or no findings as the source states them, for the method shown. Binding seen in cells or lysates may run through a third protein. These calls come from enrichment with a bait or labelling near it, and not all partners need be listed. Sequences can lack the tags named with a protein.

Results on 12 molecules are retold here after paper PMC3168509, “Insights into the Role of Yeast eIF2A in IRES-Mediated Translation” (PLoS ONE, 2011).

The target in the assay is T1, HA-eIF2A (N-terminally HA-tagged eukaryotic initiation factor 2A expressed from YCplac111-YP) (S. cerevisiae). Nature of the assay: affinity purification with mass spectrometry; HA-eIF2A precipitated on α-HA affinity matrix from lysate of ΔeIF2A yeast with YCplac111-YP, NETK buffer, overnight 4°C, eluted with HA peptide; gel bands absent from the vector-alone control analysed by LC-tandem MS.
As for “Poly(A) Binding Protein (Pab1p), endogenous (from UniProt P04147 1-577)”, the binding entry is reported as “binds”. Consider “Large ribosomal protein 3, endogenous (from UniProt P14126 1-387)”, for which the binding entry was “binds”. “eEF1A (eukaryotic translation elongation factor 1A), endogenous (from UniProt P02994 1-458)”: the binding result is listed as “binds”. Then “Large ribosomal protein 15B, endogenous (from UniProt P54780 1-204)”, with “binds”; and “Large ribosomal protein 1B, endogenous (from UniProt P0CX44 1-217)”, with “binds”; and “Large ribosomal protein 2B, endogenous (from UniProt P0CX46 1-254)”, with “binds”. Consider “Large ribosomal protein 4B, endogenous (from UniProt P49626 1-362)”, for which the binding entry is “binds”. Then “Eukaryotic translation elongation factor 2 (Eft1p), endogenous (from UniProt P32324 1-842)”, with “binds”; and B1, with “binds”; and B2, with “binds”.

Regarding B3, the binding entry is “binds”. For the molecule B4, the binding entry is listed as “binds”.
